From doi:10.1101/589473
Results are given in words; binding and its absence hold for the method and conditions named. In cells and extracts the contact can be indirect. Some entries that bind do so weakly or less than the wild type.

Sequences of proteins named here, by UniProt entry; tags and fusion partners are left off.
UniProt Q96GD4: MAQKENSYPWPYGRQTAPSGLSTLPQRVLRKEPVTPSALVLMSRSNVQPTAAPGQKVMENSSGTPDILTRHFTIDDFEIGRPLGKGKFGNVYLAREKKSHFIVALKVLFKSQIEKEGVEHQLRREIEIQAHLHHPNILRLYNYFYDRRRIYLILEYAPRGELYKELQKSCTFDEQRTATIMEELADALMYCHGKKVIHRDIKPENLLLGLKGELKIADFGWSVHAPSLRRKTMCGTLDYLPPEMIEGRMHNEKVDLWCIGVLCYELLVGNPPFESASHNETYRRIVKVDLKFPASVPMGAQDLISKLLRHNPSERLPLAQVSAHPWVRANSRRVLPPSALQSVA
UniProt Q92993: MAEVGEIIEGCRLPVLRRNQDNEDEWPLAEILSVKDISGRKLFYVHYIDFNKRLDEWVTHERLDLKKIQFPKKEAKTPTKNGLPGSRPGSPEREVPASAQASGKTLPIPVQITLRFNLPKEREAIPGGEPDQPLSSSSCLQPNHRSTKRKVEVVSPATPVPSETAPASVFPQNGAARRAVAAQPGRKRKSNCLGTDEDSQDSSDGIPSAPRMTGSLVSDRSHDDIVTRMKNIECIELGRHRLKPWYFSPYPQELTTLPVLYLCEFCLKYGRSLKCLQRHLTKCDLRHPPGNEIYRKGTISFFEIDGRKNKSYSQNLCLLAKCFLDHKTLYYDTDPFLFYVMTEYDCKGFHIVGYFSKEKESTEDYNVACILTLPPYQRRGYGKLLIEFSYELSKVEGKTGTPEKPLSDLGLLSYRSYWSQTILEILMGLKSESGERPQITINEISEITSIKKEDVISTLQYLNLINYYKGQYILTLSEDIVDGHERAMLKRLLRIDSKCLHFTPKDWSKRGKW

What was measured:
[1] = molecular target: Flag-AurkB (Aurora kinase B) (human) (UniProt Q96GD4); experiment: co-IP
[2] = molecular target: 2N3T-Tip60 (HA-Tip60) (human) (UniProt Q92993); experiment: co-IP

| binding [1] | binding [2] | Substance |
| --- | --- | --- |
| binds | – | 2N3T-Tip60 (HA-Tip60) (from UniProt Q92993 1-513) (enzyme) |
| – | binds | Flag-AurkB (Aurora kinase B) (from UniProt Q96GD4 1-344) (enzyme) |
